In publication doi:10.1101/2024.10.03.616509 one finds binding data, which are given here for one molecule.

One assay has as its target T1, Vps11 (UniProt Q9H270).
T1 sequence: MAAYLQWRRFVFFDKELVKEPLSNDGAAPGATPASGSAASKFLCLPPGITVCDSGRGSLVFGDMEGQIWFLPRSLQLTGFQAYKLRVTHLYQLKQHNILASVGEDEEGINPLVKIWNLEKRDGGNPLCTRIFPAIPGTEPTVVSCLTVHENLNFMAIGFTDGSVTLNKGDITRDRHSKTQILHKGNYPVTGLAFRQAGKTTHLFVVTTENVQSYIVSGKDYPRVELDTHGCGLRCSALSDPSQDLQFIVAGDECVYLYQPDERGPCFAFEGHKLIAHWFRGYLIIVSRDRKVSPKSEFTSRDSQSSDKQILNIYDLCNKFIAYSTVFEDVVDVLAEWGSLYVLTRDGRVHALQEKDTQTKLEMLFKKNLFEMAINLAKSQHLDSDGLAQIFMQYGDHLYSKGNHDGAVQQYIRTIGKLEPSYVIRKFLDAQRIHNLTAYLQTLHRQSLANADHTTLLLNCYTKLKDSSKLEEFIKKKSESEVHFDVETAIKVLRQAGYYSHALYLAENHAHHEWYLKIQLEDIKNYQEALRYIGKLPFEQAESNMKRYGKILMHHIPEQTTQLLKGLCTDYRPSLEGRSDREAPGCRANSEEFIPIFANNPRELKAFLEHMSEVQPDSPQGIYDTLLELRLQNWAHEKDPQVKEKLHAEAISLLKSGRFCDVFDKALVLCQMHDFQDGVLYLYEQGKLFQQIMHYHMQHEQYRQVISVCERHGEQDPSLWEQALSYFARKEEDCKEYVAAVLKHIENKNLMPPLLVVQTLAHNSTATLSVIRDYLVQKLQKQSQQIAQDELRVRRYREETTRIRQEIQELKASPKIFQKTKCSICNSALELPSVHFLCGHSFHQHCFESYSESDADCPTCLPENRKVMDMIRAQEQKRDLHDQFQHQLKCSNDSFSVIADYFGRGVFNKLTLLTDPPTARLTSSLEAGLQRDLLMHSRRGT
Put plainly: two-hybrid.

The next assay has as its target T2, Vps16 (UniProt Q9H269).
T2 sequence: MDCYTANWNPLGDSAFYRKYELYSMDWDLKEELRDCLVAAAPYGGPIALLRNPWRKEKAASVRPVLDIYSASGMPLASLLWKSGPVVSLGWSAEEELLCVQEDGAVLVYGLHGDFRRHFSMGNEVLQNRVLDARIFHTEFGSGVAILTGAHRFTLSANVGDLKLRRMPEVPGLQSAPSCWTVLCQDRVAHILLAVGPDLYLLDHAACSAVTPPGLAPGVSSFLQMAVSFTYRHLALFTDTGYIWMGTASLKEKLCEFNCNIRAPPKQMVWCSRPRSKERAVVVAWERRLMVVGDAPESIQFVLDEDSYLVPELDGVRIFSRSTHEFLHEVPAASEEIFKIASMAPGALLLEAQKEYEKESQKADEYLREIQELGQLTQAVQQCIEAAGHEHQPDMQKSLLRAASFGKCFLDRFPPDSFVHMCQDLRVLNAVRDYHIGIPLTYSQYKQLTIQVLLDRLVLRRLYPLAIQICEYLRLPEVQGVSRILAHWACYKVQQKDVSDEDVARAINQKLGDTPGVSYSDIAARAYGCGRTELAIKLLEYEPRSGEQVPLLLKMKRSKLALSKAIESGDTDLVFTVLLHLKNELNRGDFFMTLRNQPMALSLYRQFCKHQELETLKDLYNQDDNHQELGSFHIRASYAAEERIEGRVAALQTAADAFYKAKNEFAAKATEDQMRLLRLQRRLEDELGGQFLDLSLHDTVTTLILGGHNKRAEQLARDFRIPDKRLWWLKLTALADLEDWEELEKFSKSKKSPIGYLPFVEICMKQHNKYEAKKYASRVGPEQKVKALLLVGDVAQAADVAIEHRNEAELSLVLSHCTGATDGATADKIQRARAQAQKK
Put plainly: two-hybrid.

Results are given in words; binding and its absence hold for the method and conditions named. Some binding calls cover weakened binding; strength is not graded here.

B1: TECPR2 (WT) (protein, UniProt O15040 1-1411)
chain: MASISEPVTFREFCPLYYLLNAIPTKIQKGFRSIVVYLTALDTNGDYIAVGSSIGMLYLYCRHLNQMRKYNFEGKTESITVVKLLSCFDDLVAAGTASGRVAVFQLVSSLPGRNKQLRRFDVTGIHKNSITALAWSPNGMKLFSGDDKGKIVYSSLDLDQGLCNSQLVLEEPSSIVQLDYSQKVLLVSTLQRSLLFYTEEKSVRQIGTQPRKSTGKFGACFIPGLCKQSDLTLYASRPGLRLWKADVHGTVQATFILKDAFAGGVKPFELHPRLESPNSGSCSLPERHLGLVSCFFQEGWVLSWNEYSIYLLDTVNQATVAGLEGSGDIVSVSCTENEIFFLKGDRNIIRISSRPEGLTSTVRDGLEMSGCSERVHVQQAEKLPGATVSETRLRGSSMASSVASEPRSRSSSLNSTDSGSGLLPPGLQATPELGKGSQPLSQRFNAISSEDFDQELVVKPIKVKRKKKKKKTEGGSRSTCHSSLESTPCSEFPGDSPQSLNTDLLSMTSSVLGSSVDQLSAESPDQESSFNGEVNGVPQENTDPETFNVLEVSGSMPDSLAEEDDIRTEMPHCHHAHGRELLNGAREDVGGSDVTGLGDEPCPADDGPNSTQLPFQEQDSSPGAHDGEDIQPIGPQSTFCEVPLLNSLTVPSSLSWAPSAEQWLPGTRADEGSPVEPSQEQDILTSMEASGHLSTNLWHAVTDDDTGQKEIPISERVLGSVGGQLTPVSALAASTHKPWLEQPPRDQTLTSSDEEDIYAHGLPSSSSETSVTELGPSCSQQDLSRLGAEDAGLLKPDQFAESWMGYSGPGYGILSLVVSEKYIWCLDYKGGLFCSALPGAGLRWQKFEDAVQQVAVSPSGALLWKIEQKSNRAFACGKVTIKGKRHWYEALPQAVFVALSDDTAWIIRTSGDLYLQTGLSVDRPCARAVKVDCPYPLSQITARNNVVWALTEQRALLYREGVSSFCPEGEQWKCDIVSERQALEPVCITLGDQQTLWALDIHGNLWFRTGIISKKPQGDDDHWWQVSITDYVVFDQCSLFQTIIHATHSVATAAQAPVEKVADKLRMAFWSQQLQCQPSLLGVNNSGVWISSGKNEFHVAKGSLIGTYWNHVVPRGTASATKWAFVLASAAPTKEGSFLWLCQSSKDLCSVSAQSAQSRPSTVQLPPEAEMRAYAACQDALWALDSLGQVFIRTLSKSCPTGMHWTRLDLSQLGAVKLTSLACGNQHIWACDSRGGVYFRVGTQPLNPSLMLPAWIMIEPPVQPAGVSLVSVHSSPNDQMLWVLDSRWNVHVRTGITEEMPVGTAWEHVPGLQACQLALSTRTVWARCPNGDLARRYGVTDKNPAGDYWKKIPGSVSCFTVTASDELWAVGPPGYLLQRLTKTFSHSHGTQKSSQAAMPHPEDLEDEWEVI
In the case of B1, the binding entry in the assay with Vps11 is recorded as “binds weakly”; with Vps16, “binds”.
